Measurements: patent US5716528A, “Peroxide water treatment process” (Domtar Inc., priority 1995, dated 1998)

How the values were obtained:
[1] = Oxidation of pentachlorophenol by hydrogen peroxide/Fe2+, pH effect; details: 18.7 ppm before reaction, 40 °C, 3 h
[2] = Effect of ferrous iron as percent of peroxide on the oxidation of pentachlorophenol; details: penta 57 ppm, pH 3.5
[3] = 100 ppm before reaction, 40 °C, 3 h
[4] = Oxidation of wood preserving plant process water, effect of peroxide/COD weight ratio; details: phenols 67.2 ppm, pH 3.5
[5] = phenol 1000 ppm
[6] = Oxidation of wood preserving plant process water, effect of catalyst concentration; details: phenol 67.2 ppm
[7] = phenol 1000 ppm, peroxide/phenol 3:1

Oc1c(Cl)c(Cl)c(Cl)c(Cl)c1Cl [Pentachlorophenol, pentachlorophenol]
penta after reaction ([1]; pH 2.6): 0.02 ppm | penta after reaction ([1]; pH 2.8): 0.02 ppm | penta after reaction ([1]; pH 3.6): 0.02 ppm | penta after reaction ([1]; pH 4.5): 1.38 ppm | penta after reaction ([1]; pH 5.3): 1.5 ppm | penta after reaction ([1]; pH 9.5): 17.4 ppm | penta after reaction ([1]; pH 11.6): 17.4 ppm | Residual penta ([2]; Fe2+ 0.3% (w/w) of H2O2): 45.8 ppm | Residual penta ([2]; Fe2+ 0.6% (w/w) of H2O2): 40.8 ppm | Residual penta ([2]; Fe2+ 1.8% (w/w) of H2O2): 2.3 ppm | Residual penta ([2]; Fe2+ 2.5% (w/w) of H2O2): 1.6 ppm | Residual penta ([2]; Fe2+ 2.9% (w/w) of H2O2): 4.36 ppm | Residual penta ([2]; Fe2+ 3.9% (w/w) of H2O2): 1.4 ppm | Residual penta ([2]; Fe2+ 5% (w/w) of H2O2): 0.88 ppm | Residual penta ([2]; Fe2+ 6.3% (w/w) of H2O2): 0.95 ppm | Residual penta ([2]; Fe2+ 9.5% (w/w) of H2O2): 0.97 ppm | Residual penta ([2]; Fe2+ 12.7% (w/w) of H2O2): 0.98 ppm | Residual penta ([2]; Fe2+ […] (w/w) of H2O2): 11.2 ppm

Oc1ccccc1 [Phenol, phenol]
phenol after reaction ([3]; pH 3.6): < 0.02 ppm | phenol after reaction ([3]; pH 7): 60 ppm | phenol after reaction ([3]; pH 9): 75 ppm | phenol after reaction ([3]; pH 11.6): 75 ppm | residual phenol ([4]; H2O2/COD 0.3): < 0.02 ppm | residual phenol ([4]; H2O2/COD 0.45): < 0.02 ppm | residual phenol ([4]; H2O2/COD 0.6): < 0.02 ppm | residual phenol ([4]; H2O2/COD 0.9): < 0.02 ppm | residual phenol ([4]; H2O2/COD 1.04): < 0.02 ppm | residual phenol ([4]; H2O2/COD 1.19): < 0.02 ppm | residual phenol ([4]; H2O2/COD 1.3): < 0.02 ppm | residual phenol ([5]; peroxide/phenol 1.5:1, Fe2+/H2O2 3% w/w): 100 ppm | residual phenol ([5]; peroxide/phenol 2:1, Fe2+/H2O2 2.25% w/w): 40 ppm | residual phenol ([5]; peroxide/phenol 3:1, Fe2+/H2O2 1.5% w/w): < 0.02 ppm | residual phenol ([6]; Fe2+ 25.1 ppm, […] (w/w) of H2O2, pH 3.5): < 0.02 ppm | residual phenol ([6]; Fe2+ 50.2 ppm, 2.4% (w/w) of H2O2, pH 3.5): < 0.02 ppm | residual phenol ([6]; Fe2+ 100.4 ppm, 4.8% (w/w) of H2O2, pH 3.5): < 0.02 ppm | residual phenol ([6]; Fe2+ 150 ppm, 7.1% (w/w) of H2O2, pH 11.5): > 50 ppm | residual phenol ([6]; Fe2+ 150.7 ppm, 7.2% (w/w) of H2O2, pH 3.5): < 0.02 ppm | residual phenol ([6]; Fe2+ 202 ppm, 9.6% (w/w) of H2O2, pH 3.5): < 0.02 ppm | residual phenol ([7]; Fe2+ 0.5% (w/w) of H2O2): < 0.02 ppm | residual phenol ([7]; Fe2+ 0.9% (w/w) of H2O2): < 0.02 ppm | residual phenol ([7]; Fe2+ 1.5% (w/w) of H2O2): < 0.02 ppm | residual phenol ([7]; Fe2+ 3.7% (w/w) of H2O2): < 0.02 ppm | residual phenol ([7]; Fe2+ 500 ppm, 17% (w/w) of H2O2): 20 ppm | residual phenol ([7]; Fe2+ 1000 ppm, 33% (w/w) of H2O2): 20 ppm

Like-named read-outs stand apart in the source and are kept apart here.
